The subject of the test is B16 melanoma ip, C57BL/6 mice, median survival T/C. As to the kind of experiment: NCI In Vivo Anticancer Drug Screen. Data for tumor model B16 Melanoma (intraperitoneal) in C57BL/6 mice. The conditions noted are these: T/C endpoint: median survival time, higher T/C = longer survival. Here is the method:
The antitumor activity of compounds was measured in mice bearing transplantable tumors. Survival or tumor size were measured and the results are expressed as the measurement made in the treated group (T) divided by the measurement made in the vehicle treated control group (C). The tumor model used in this assay is B16 Melanoma (intraperitoneal) in C57BL/6 mice

Where [1] appears, read: dose: 60.0 mg/kg/injection, schedule: Q01DX009 (ip), vehicle: saline.
Setting [2] is: dose: 25.0 mg/kg/injection, schedule: Q01DX009 (ip), vehicle: saline.
Setting [3] is: dose: 50.0 mg/kg/injection, schedule: Q01DX009 (ip), vehicle: saline.
Where [4] appears, read: dose: 100.0 mg/kg/injection, schedule: Q01DX009 (ip), vehicle: saline.
Setting [5] is: dose: 200.0 mg/kg/injection, schedule: Q01DX009 (ip), vehicle: saline.
Setting [6] is: dose: 0.5 mg/kg/injection, schedule: Q01DX009 (ip), vehicle: saline.
The mark [7] stands for this setting: dose: 0.4 mg/kg/injection, schedule: Q01DX009 (ip), vehicle: saline.
Setting [8] is: dose: 0.8 mg/kg/injection, schedule: Q01DX009 (ip), vehicle: saline.

Each structure is given as a SMILES string. The list does not hold the whole screen: it gathers tests that were run many times, whatever their T/C, doses with no T/C, and many T/C values between a quarter and a half above the control. Further doses and runs are listed elsewhere. T/C gives the treated animals as a percentage of the vehicle group. Some doses have a count of surviving animals in place of a T/C: the source files T/C as zero there, which appears to mark a toxic dose or a test without result, not a measured value. Some doses without a T/C left all or most animals alive at the check, yet need not have been tolerated: survival well below the control is almost never listed, so the zero probably covers shortened survival too. Counts of survivors are from the toxicity check (mostly the fifth day) where no day follows; animals may have died later. Schedules are NCI's codes, read here as Q, the interval in days (D) or hours (H), X, the number of doses. Signs of the kind (2×) stand for listed records that agree. Some entries were tested several times; the values are given in rising order. For survival time, this PubChem deposit counts one and a half times the control or more as active, and values a quarter to a half above the control carry no call in these data; other NCI protocols may use other cut-offs. Some T/C values are followed by the survivors on the day toxicity was checked, most often the fifth; where none is given, no animal had died by that day. *1 amine or outer side, *2 acyl side, *3 side chain or, on linkers, in order; H or OH if unused. Where a SMILES comes first, the peptide text is derived from it. Bridges are numbered along the chain shown (N, C = ends). Roman numbers before positions name the chains, in order. [ ]: non-standard residue; d: D form. Actinocin(9to1) = Cc1c2oc3c(C)ccc(C(=O)[*:1])c3nc-2c(C(=O)[*:2])c(N)c1=O; aThr = C[C@H](O)[C@H](N)C(=O)O; NMeV = CN[C@H](C(=O)O)C(C)C; Sar = CNCC(=O)O

For the compound `O=C1CN(CCN2CC(=O)NC(=O)C2)CC(=O)N1`, the T/C (dose: 15.0 mg/kg/injection, schedule: Q01DX009 (ip), vehicle: saline) is 137 % of control; the T/C under setting [1] is 131 % of control; the T/C (dose: 120.0 mg/kg/injection, schedule: Q01DX009 (ip), vehicle: saline) is 146 % of control. Further, where the note is “dose: 240.0 mg/kg/injection, schedule: Q01DX009 (ip), vehicle: saline”, the survivor count is recorded as 6 of 6.

Turning to `COc1cc(NS(C)(=O)=O)ccc1Nc1c2ccccc2nc2ccccc12`, the T/C is, setting by setting: (dose: 0.5 mg/kg/injection, schedule: Q01DX009 (ip), vehicle: Klucel (hydroxypropylcellulose) (HPC)) 131 % of control [9 of 10 alive]; (dose: 1.0 mg/kg/injection, schedule: Q01DX009 (ip), vehicle: water) 145 % of control. Further, the survivor count is on record as 9 of 10 (dose: 4.0 mg/kg/injection, schedule: Q01DX009 (ip), vehicle: Klucel (hydroxypropylcellulose) (HPC)); 9 of 10 (dose: 8.0 mg/kg/injection, schedule: Q01DX009 (ip), vehicle: Klucel (hydroxypropylcellulose) (HPC)); 10 of 10 (dose: 8.0 mg/kg/injection, schedule: Q01DX009 (ip), vehicle: water).

`C[n+]1c2ccccc2c(Nc2ccc(NS(=O)(=O)CCCCN=C(N)N)cc2)c2ccc(N)cc21`: the T/C (dose: 0.37 mg/kg/injection, schedule: Q01DX009 (ip), vehicle: water) is 128 % of control; the T/C (dose: 0.75 mg/kg/injection, schedule: Q01DX009 (ip), vehicle: water) is 131 % of control; the T/C (dose: 1.5 mg/kg/injection, schedule: Q01DX009 (ip), vehicle: water) was 136 % of control; the T/C (dose: 3.0 mg/kg/injection, schedule: Q01DX009 (ip), vehicle: water) was 143 % of control. Under “dose: 6.0 mg/kg/injection, schedule: Q01DX009 (ip), vehicle: water”, the survivor count is listed as 10 of 10.

`CN(C)/N=N/c1nc[nH]c1C(N)=O`: the T/C under setting [2] is 126 % of control, the T/C under setting [3] was 146 % of control, the T/C under setting [4] is 133 % of control and the T/C under setting [5] was 130 % of control. Also, under setting [5], the survivor count was 10 of 10.

As for `Nc1ccc(Cl)cc1N`, the survivor count was 10 of 10 (dose: 200.0 mg/kg/injection, schedule: Q01DX009 (ip), vehicle: other) and 5 of 10 (dose: 400.0 mg/kg/injection, schedule: Q01DX009 (ip), vehicle: other).

As for `C1CN1c1nc(N2CC2)nc(N2CC2)n1`, under setting [6], the T/C was 140 % of control and the survivor count is reported as 10 of 10. Also, the survivor count (dose: 1.0 mg/kg/injection, schedule: Q01DX009 (ip), vehicle: saline) was 10 of 10.

For the compound `OC1CCCC2CCC[N-]C12.OC1CCCC2CCC[N-]C12.[O]=[V][OH]` (stereo not drawn), the survivor count (dose: 50.0 mg/kg/injection, schedule: Q01DX009 (ip), vehicle: saline with Tween-80) is given as 2 of 6.

On to `CC1CCC(NC(=O)N(CCCl)N=O)CC1` (stereo not drawn), for which, under “dose: 30.0 mg/kg/injection, schedule: Q01DX001 (ip), vehicle: saline”, the T/C was 125 % of control. Also, the survivor count (dose: 60.0 mg/kg/injection, schedule: Q01DX001 (ip), vehicle: saline) is listed as 4 of 6.

For the compound `COc1ccc(-c2c(C)c(C(=O)O)nc(-c3ccc4c(O)c(OC)c5c(c4n3)=NC(C)(C)N=5)c2N)c(O)c1OC`, the survivor count (dose: 40.0 mg/kg/injection, schedule: Q01DX009 (ip), vehicle: saline) was 9 of 10.

Regarding `CN1CCN(CCCN2c3ccccc3Sc3ccc(C(F)(F)F)cc32)CC1`, the survivor count is, setting by setting: under setting [3], 6 of 10; under setting [4], 0 of 10.

As to `COC1=C(N)C(=O)c2nc(-c3nc(C(=O)O)c(C)c(-c4ccc(OC)c(OC)c4O)c3N)ccc2C1=O`, the T/C is, setting by setting: (dose: 0.1 mg/kg/injection, schedule: Q01DX009 (ip), vehicle: saline, evaluated on day 35) 106 % of control; (dose: 0.1 mg/kg/injection, schedule: Q01DX009 (ip), vehicle: saline, evaluated on day 60) 106 (2×), 115, 217 % of control; (dose: 0.2 mg/kg/injection, schedule: Q01DX009 (ip), vehicle: saline, evaluated on day 35) 90 % of control; (dose: 0.2 mg/kg/injection, schedule: Q01DX009 (ip), vehicle: saline, evaluated on day 60) 109, 113, 117, 118 % of control; under setting [7], 121 % of control. For the same compound, the survivor count runs as follows: under setting [7], 10 of 10 (2×); under setting [8], 6 of 10.

`CCSCCC(N)C(=O)O` (stereo not drawn): under “dose: 400.0 mg/kg/injection, schedule: Q01DX009 (ip), vehicle: saline”, the survivor count is on record as 8 of 10.

Take `CC1=C2C(=C[C@@](C)(CO)[C@@H]2O)C(=O)[C@](C)(O)C12CC2`: the T/C under setting [7] was 126 % of control. For the same compound, the survivor count under setting [8] is recorded as 10 of 10.

For `Nc1ncnc2c(C3OC(CO)C(O)C3O)[nH]nc12` (stereo not drawn), under “dose: 15.6 mg/kg/injection, schedule: Q01DX009 (ip), vehicle: saline”, the T/C is 147 % of control. For the same compound, the survivor count was 10 of 10 (dose: 32.0 mg/kg/injection, schedule: Q01DX009 (ip), vehicle: saline); 10 of 10 (dose: 62.5 mg/kg/injection, schedule: Q01DX009 (ip), vehicle: saline); 10 of 10 (dose: 64.0 mg/kg/injection, schedule: Q01DX009 (ip), vehicle: saline); 8 of 10 (dose: 125.0 mg/kg/injection, schedule: Q01DX009 (ip), vehicle: saline).

On to `O=CC(S)CO` (stereo not drawn), for which the T/C under setting [4] is 130 % of control. In addition, the survivor count under setting [5] was 8 of 10.

In the case of `S=c1nc[nH]c2nc[nH]c12`, under setting [1], the survivor count was 10 of 10.

With `CCCC/C=C/CCCCCCCC(=O)OCCCCCCCCCCCCCCCC`, the survivor count (dose: 800.0 mg/kg/injection, schedule: Q01DX001 (ip), vehicle: saline with Tween-80) is given as 4 of 4 on day 2; the survivor count (dose: 1600.0 mg/kg/injection, schedule: Q01DX001 (ip), vehicle: saline with Tween-80) is 4 of 4 on day 2; the survivor count (dose: 3200.0 mg/kg/injection, schedule: Q01DX001 (ip), vehicle: saline with Tween-80) is 4 of 4 on day 2.

In the case of `Nc1nc(CCl)nc(Nc2ccccc2)n1`, the survivor count (dose: 400.0 mg/kg/injection, schedule: Q01DX009 (ip), vehicle: saline with Tween-80) is reported as 2 of 6.

As for `Cc1c2oc3c(C)ccc(C(=O)N[C@@H]4C(=O)N[C@H](C(C)C)C(=O)N5CCC[C@H]5C(=O)N(C)CC(=O)N(C)[C@@H](C(C)C)C(=O)O[C@H]4C)c3nc-2c(C(=O)N[C@@H]2C(=O)N[C@H](C(C)C)C(=O)N3CCC[C@H]3C(=O)N(C)CC(=O)N(C)[C@@H](C(C)C)C(=O)O[C@H]2C)c(N)c1=O` (I: [aThr][dV]P[Sar][NMeV] / II: [aThr][dV]P[Sar][NMeV]; ester I:1-I:C, II:1-II:C; linker I:N-II:N via Actinocin(9to1)), for the setting “dose: 0.03 mg/kg/injection, schedule: Q01DX009 (ip), vehicle: saline”, the T/C was 139 % of control. Moreover, the survivor count (dose: 0.1 mg/kg/injection, schedule: Q01DX009 (ip), vehicle: saline) was 10 of 10 and the survivor count (dose: 0.2 mg/kg/injection, schedule: Q01DX009 (ip), vehicle: saline) is on record as 10 of 10.

For the compound `CN(Cc1cnc2nc(N)nc(N)c2n1)c1ccc(C(=O)N[C@@H](CCC(=O)O)C(=O)O)cc1`, the survivor count (dose: 3.0 mg/kg/injection, schedule: Q01DX009 (ip), vehicle: saline) is recorded as 10 of 10.

For `Nc1nc2ncc(CNc3ccc(C(=O)NC(CCC(=O)O)C(=O)O)cc3)nc2c(=O)[nH]1` (stereo not drawn), the survivor count under setting [3] is given as 10 of 10; the survivor count under setting [4] was 8 of 10 and 10 of 10.

On to `CC(=O)[C@@]1(O)CC[C@H]2[C@@H]3C[C@H](C)C4=CC(=O)C=C[C@]4(C)[C@@]3(F)[C@@H](O)C[C@@]21C`, for which the survivor count (dose: 50.0 mg/kg/injection, schedule: Q01DX009 (sc), vehicle: steroid suspending solution) was 10 of 10 and the survivor count (dose: 100.0 mg/kg/injection, schedule: Q01DX009 (sc), vehicle: steroid suspending solution) is 10 of 10.

With `O=P1(N(CCCl)CCCl)NCCCO1` (stereo not drawn), the T/C under setting [2] is 130 % of control. Moreover, the survivor count is reported as 10 of 10 under setting [4] and 9 of 10 under setting [5].

The values are drawn from PubChem BioAssay AID198 (DTP/NCI, 2004).
